Source: paper PMC6033292
Results are given in words; binding and its absence hold for the method and conditions named. In cells and extracts the contact can be indirect. Some binding calls cover weakened binding; strength is not graded here.

Chains of the proteins cited; added tags and fusions are not shown. Lines headed by an entry give the natural chain unless they say otherwise; changes in a name come on top.
UniProt Q8BTI9: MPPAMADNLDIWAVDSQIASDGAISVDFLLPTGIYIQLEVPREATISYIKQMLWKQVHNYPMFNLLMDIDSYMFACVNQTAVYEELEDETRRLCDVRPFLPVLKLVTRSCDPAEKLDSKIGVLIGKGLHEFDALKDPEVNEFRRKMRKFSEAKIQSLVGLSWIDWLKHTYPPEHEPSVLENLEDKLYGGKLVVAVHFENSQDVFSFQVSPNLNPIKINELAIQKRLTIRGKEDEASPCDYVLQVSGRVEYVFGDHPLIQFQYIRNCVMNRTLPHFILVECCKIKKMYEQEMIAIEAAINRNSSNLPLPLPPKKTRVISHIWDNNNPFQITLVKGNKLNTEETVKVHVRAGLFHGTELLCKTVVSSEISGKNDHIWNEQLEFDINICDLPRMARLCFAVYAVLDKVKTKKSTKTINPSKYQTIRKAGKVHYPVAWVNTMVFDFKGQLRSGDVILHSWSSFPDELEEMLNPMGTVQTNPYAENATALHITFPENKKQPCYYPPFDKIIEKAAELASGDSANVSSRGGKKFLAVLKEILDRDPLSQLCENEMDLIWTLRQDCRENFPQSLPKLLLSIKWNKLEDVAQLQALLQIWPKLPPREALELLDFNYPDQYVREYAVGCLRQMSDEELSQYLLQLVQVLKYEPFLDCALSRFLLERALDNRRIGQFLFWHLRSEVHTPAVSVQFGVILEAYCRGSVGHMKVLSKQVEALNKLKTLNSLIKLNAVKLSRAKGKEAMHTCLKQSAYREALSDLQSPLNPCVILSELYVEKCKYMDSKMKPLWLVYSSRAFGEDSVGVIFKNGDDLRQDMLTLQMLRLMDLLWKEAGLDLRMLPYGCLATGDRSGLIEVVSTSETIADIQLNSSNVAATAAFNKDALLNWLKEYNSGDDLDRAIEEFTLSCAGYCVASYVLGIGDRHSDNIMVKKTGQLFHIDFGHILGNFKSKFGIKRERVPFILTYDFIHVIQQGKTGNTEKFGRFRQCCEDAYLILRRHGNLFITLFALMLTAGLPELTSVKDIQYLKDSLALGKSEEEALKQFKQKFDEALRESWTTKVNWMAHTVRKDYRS
UniProt P60766: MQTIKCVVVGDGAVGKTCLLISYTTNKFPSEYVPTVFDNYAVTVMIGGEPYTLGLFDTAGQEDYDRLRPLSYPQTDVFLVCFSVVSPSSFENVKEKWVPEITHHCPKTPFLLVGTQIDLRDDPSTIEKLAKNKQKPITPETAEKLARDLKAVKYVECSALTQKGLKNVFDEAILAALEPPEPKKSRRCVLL

Target: phosphatidylinositol-4,5-bisphosphate 3-kinase catalytic subunit beta (p110β) (mouse (endogenous in ovaries)) (UniProt Q8BTI9)
Assay: co-IP; mouse ovary lysates (70 ovaries at 4 dpp, or 35 ovaries each group) in IP buffer; 5 ug antibody on magnet beads, 30 min at RT, three washes, Western blot; also cultured 2 dpp ovaries with or without ML141, and 1 dpp ovaries transfected with empty, CDC42-DN or CDC42-CA lentivirus

| Substance | binding |
| --- | --- |
| cell division cycle 42 (CDC42) (from UniProt P60766 1-191) | binds |
| constitutively active GTP-bound CDC42Q61L (CDC42-CA) (from UniProt P60766 1-191) | binds |
